Data taken from patent US20100093813A1, “Salts 668” (ASTRAZENECA AB, priority 2007, published 2010).
Counter-ions that a name gives are not always drawn. Some results were stated once for a whole list of compounds, not compound by compound.

Chains of the proteins cited; added tags and fusions are not shown.
UniProt P08588, whole entry: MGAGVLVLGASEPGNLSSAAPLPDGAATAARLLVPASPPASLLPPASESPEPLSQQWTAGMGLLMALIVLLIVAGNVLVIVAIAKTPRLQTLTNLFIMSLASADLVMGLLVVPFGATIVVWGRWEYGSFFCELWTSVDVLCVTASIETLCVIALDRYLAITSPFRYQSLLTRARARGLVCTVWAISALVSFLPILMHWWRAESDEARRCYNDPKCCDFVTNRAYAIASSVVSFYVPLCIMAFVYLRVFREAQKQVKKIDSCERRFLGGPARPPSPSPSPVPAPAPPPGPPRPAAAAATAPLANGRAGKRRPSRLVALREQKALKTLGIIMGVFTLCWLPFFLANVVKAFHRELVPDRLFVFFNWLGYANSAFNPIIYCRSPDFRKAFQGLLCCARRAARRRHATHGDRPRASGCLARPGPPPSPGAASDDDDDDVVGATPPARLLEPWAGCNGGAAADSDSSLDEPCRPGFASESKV

Molecular target: T1, recombinant human adrenergic beta 1 receptors (Homo sapiens, UniProt P08588)
T1 construct: purchased Euroscreen
Assay: Adrenergic β1 selectivity assay ([125I]-Iodocyanopindolol binding)
Details: β2 adrenoceptor versus adrenergic β1

SMILES	selectivity for β2 adrenoceptor over adrenergic β1
CCN(CC)CCN(CCNCCc1ccc(O)c2[nH]c(=O)sc12)C(=O)CCOCCc1cccc2ccccc12 [Compound B, N-[2-(diethylamino)ethyl]-N-(2-{[2-(4-hydroxy-2-oxo-2,3-dihydro-1,3-benzothiazol-7-yl)ethyl]amino}ethyl)-3-[2-(1-naphthyl)ethoxy]propanamide]	at least 10 fold
CCN(CC)CCN(CCNCCc1ccc(O)c2[nH]c(=O)sc12)C(=O)CCOCCc1cccc2ccccc12 [Compound A, N-[2-(Diethylamino)ethyl]-N-(2-{[2-(4-hydroxy-2-oxo-2,3-dihydro-1,3-benzothiazol-7-yl)ethyl]amino}ethyl)-3-[2-(1-naphthyl)ethoxy]propanamide Dihydrobromide]	at least 10 fold
CCN(CC)CCN(CCNCCc1ccc(O)c2[nH]c(=O)sc12)C(=O)CCOCCc1cccc2ccccc12.Cl.Cl [dihydrochloride, N-[2-(diethylamino)ethyl]-N-(2-{[2-(4-hydroxy-2-oxo-2,3-dihydro-1,3-benzothiazol-7-yl)ethyl]amino}ethyl)-3-[2-(1-naphthyl)ethoxy]propanamide Dihydrochloride]	at least 10 fold
